Results published in patent US20220265821A1.
Results are given in words; binding and its absence hold for the method and conditions named. Some results given as binding are weak or reduced against the parent protein; the word gives no strength.

T1: mouse VpreB1 (on the mouse pre-B cell line L1.2) (mouse) (UniProt P13372)
T1 sequence: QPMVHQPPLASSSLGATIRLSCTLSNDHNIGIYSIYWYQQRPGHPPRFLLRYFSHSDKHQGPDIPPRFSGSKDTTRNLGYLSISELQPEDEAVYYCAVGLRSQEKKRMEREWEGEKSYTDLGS


Biological target: T1, mouse VpreB1 (on the mouse pre-B cell line L1.2) (mouse)
Assay: flow cytometry on L1.2 cells, 20 nM antibody

Row | binding | Binder
1 | binds | VpreB antibody 5-14H5 (recombinant mouse-human chimeric IgG1/kappa) (antibody, V domains shown) VH: QVQLQQPGAELVKPGASVKLSCKASGYTFTSNWMNWVKQRPGQGLEWIGEINPSNGRINYNEKFKSKATLTVDKSSSTAYMQLSSLTSEDSAVYYCARSGLLDYWGQGTTLTVSS VL: DVLMTQTPLSLPVSLGDQASISCRSSQSLVHSNGNTYLHWYLQKPGQSPKLLIYKVSNRFSGVPDRFSGSGSGTDFTLKISRVEAEDLGVYFCSQSTYLPLTFGAGTRLELKR
2 | binds | VpreB antibody 5-4A9 (recombinant mouse-human chimeric IgG1/kappa) (antibody, V domains shown) VH: EVQLQQSGAELVKPGASVQLSCKASGYTFTSYWMQWVKQRPGQGLEWIGEINPSNGRNNYNEKFKRKATLTVDTSSSTAYMQLSSLTSEDSAVYYCARSGLLDYWGQGTTLTVSS VL: DVLMTQTPLSLPVSLGDQASISCRSSQSLVHSNGNTYLHWYLQKPGQSPKLLIYKVSNRFSGVPDRFSGSGSGTDFTLTISRVEAEDLGVYFCSQSTYVPLTFGAGTKLELKR
